Results reported in the supplement of paper PMC6411743.
± gives the standard deviation of the averaged measurements. The list shows a part of the results, in another mix than the full data.

Protein sequences, listed by entry. Tags and fused reporters are not part of them. Lines headed by an entry give the natural chain unless they say otherwise; changes in a name come on top.
UniProt Q92828: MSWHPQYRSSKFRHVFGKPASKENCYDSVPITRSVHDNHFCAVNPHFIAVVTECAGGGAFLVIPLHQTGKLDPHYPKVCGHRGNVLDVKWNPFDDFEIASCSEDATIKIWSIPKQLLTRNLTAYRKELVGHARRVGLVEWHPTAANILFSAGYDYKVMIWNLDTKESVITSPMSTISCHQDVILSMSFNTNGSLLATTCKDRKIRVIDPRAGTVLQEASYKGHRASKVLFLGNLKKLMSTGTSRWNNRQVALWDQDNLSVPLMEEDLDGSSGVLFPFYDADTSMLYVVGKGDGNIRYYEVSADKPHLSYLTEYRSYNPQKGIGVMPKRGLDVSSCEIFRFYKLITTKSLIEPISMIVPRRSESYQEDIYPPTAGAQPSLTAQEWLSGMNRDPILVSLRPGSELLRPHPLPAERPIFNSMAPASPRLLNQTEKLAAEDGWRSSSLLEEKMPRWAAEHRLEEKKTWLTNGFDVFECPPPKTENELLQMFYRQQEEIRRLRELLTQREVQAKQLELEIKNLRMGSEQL
UniProt Q92734, whole entry: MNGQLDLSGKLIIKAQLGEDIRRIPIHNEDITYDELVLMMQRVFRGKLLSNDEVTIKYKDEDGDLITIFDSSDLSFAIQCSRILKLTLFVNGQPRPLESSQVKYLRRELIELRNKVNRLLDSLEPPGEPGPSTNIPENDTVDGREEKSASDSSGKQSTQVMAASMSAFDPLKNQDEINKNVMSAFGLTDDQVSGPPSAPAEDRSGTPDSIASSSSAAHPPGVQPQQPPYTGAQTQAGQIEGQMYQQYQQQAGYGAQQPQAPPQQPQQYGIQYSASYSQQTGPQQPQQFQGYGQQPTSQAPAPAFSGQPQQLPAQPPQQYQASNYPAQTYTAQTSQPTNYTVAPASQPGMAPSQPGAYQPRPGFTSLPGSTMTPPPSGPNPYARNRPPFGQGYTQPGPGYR
UniProt Q8NFV4: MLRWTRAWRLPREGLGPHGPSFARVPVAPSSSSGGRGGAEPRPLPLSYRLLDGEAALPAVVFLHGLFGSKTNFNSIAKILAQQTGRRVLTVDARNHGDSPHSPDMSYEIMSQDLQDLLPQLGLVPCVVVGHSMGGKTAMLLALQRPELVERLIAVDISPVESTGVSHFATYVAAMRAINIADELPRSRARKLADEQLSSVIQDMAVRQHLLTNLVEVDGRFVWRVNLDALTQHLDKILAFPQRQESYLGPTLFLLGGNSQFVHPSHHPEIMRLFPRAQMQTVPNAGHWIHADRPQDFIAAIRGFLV
UniProt Q8NEF9: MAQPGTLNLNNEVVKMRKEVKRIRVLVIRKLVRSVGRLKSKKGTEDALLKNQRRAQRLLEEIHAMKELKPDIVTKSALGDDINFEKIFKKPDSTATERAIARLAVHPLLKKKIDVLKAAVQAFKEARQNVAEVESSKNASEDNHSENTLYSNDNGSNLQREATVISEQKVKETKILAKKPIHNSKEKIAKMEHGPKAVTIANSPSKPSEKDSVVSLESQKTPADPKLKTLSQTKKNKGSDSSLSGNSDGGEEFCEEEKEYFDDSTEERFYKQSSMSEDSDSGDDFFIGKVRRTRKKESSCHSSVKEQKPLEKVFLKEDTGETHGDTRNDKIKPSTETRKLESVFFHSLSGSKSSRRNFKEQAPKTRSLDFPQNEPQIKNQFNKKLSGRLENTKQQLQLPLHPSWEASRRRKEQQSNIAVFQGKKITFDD
UniProt Q92859: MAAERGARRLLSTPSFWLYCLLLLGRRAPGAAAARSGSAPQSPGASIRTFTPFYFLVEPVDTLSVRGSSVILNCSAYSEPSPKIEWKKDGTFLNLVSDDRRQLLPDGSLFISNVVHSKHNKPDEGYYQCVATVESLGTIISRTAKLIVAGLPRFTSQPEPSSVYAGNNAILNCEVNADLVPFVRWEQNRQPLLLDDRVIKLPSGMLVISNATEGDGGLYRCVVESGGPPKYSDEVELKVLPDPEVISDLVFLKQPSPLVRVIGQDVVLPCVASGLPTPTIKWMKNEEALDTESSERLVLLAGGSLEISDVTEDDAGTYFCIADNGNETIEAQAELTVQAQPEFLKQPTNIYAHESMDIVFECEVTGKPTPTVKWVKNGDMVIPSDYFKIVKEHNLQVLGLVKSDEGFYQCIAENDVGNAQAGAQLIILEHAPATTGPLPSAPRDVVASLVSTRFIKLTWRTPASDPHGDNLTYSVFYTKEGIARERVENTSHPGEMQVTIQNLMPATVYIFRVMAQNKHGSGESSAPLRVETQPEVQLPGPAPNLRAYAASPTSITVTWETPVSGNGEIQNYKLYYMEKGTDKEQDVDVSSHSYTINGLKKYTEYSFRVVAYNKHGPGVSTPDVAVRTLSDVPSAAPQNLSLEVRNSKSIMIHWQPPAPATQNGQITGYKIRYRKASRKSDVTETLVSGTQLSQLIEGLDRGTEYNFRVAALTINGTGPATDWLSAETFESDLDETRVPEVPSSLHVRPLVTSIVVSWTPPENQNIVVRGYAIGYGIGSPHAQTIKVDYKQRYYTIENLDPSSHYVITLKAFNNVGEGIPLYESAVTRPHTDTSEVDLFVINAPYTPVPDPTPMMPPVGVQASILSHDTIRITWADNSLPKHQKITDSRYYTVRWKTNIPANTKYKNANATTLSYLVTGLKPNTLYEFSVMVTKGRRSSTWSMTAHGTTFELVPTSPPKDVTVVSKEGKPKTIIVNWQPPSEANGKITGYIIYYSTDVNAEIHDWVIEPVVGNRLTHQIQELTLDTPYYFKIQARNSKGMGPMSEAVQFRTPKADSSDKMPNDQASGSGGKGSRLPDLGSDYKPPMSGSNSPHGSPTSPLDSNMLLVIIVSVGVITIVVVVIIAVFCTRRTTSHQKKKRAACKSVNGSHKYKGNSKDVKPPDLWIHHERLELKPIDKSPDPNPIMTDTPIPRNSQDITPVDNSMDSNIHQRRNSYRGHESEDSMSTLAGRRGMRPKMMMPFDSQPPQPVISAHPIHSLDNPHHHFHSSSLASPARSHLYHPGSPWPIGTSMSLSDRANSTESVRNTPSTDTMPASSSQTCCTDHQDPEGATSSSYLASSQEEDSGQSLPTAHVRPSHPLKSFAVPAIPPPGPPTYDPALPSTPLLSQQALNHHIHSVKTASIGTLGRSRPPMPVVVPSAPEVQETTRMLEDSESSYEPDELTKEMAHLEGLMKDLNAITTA
UniProt Q8NHP6: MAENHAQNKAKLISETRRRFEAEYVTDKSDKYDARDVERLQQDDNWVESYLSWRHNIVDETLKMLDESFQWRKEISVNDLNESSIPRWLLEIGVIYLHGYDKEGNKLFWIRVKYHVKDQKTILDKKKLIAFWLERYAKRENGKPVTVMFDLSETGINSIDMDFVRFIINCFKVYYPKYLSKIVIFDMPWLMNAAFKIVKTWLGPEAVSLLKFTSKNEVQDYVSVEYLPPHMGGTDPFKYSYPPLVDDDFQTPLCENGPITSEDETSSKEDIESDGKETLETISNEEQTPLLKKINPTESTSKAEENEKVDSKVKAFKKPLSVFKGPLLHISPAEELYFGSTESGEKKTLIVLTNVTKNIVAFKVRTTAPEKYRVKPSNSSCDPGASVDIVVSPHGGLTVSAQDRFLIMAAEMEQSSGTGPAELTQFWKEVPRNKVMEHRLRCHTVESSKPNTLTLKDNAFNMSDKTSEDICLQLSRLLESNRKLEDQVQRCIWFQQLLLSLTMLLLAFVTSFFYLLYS
UniProt Q8NCN4: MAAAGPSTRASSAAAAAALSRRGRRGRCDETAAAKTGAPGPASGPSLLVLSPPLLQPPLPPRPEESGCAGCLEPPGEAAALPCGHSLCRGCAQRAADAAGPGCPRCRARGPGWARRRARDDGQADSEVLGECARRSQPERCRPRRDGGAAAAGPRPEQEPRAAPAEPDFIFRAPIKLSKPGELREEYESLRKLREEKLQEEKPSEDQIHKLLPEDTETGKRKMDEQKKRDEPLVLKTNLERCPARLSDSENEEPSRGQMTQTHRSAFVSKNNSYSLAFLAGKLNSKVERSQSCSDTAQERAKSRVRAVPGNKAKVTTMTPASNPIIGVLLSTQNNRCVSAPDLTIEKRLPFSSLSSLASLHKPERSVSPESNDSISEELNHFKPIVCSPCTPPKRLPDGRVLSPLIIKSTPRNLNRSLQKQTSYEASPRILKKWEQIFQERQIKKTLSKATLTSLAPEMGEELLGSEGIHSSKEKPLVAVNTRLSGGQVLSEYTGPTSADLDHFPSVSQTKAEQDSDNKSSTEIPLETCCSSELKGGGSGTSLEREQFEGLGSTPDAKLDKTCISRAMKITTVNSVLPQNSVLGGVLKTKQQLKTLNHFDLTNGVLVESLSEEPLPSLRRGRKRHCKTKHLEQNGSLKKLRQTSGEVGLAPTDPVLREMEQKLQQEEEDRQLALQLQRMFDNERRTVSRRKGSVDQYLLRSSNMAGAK
UniProt Q8TF05: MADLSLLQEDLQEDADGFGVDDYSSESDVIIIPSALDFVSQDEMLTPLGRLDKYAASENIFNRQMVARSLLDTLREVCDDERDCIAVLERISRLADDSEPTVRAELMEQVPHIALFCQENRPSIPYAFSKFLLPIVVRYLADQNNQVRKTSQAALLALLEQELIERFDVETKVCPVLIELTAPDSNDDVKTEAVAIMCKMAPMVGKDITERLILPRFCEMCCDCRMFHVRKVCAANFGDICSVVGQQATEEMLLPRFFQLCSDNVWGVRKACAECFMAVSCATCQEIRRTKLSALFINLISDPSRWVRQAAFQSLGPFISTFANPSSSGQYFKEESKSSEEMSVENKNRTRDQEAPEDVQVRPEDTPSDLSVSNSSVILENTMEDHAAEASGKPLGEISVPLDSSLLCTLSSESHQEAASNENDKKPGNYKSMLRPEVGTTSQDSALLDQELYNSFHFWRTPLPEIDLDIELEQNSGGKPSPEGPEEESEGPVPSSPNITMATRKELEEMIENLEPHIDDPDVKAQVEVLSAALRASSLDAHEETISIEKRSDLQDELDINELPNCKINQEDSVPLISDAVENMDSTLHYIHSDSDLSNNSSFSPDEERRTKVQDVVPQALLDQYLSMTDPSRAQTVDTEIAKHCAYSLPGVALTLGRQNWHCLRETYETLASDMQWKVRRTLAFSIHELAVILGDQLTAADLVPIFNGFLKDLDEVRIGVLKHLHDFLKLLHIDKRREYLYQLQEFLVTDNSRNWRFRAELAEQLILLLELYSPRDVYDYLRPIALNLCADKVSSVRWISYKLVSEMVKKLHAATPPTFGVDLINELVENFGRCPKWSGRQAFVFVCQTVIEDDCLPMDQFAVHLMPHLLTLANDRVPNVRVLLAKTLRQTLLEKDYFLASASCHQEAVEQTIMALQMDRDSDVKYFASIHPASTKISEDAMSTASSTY
UniProt Q8NHG8: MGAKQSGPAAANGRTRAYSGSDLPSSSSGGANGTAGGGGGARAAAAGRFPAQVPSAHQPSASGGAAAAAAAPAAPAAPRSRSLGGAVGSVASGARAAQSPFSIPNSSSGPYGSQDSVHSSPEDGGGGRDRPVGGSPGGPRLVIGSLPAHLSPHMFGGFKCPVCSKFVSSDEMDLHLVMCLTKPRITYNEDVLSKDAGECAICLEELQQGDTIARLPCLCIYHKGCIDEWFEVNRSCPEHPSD
UniProt Q8TB03: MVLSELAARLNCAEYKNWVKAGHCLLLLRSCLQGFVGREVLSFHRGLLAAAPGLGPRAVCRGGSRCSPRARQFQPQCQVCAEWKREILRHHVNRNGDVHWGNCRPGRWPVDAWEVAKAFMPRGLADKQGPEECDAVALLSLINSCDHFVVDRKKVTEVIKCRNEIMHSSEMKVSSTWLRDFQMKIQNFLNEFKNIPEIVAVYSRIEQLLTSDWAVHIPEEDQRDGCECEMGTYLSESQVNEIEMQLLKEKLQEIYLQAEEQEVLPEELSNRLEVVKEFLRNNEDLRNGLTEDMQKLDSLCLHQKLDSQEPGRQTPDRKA
UniProt Q8TBE9: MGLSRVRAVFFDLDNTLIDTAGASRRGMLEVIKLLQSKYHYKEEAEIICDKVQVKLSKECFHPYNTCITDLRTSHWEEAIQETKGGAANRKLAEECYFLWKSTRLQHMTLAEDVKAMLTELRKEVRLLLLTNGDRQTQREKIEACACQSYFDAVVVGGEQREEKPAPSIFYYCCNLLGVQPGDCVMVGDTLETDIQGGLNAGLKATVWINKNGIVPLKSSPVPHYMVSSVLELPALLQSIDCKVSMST
UniProt Q92506: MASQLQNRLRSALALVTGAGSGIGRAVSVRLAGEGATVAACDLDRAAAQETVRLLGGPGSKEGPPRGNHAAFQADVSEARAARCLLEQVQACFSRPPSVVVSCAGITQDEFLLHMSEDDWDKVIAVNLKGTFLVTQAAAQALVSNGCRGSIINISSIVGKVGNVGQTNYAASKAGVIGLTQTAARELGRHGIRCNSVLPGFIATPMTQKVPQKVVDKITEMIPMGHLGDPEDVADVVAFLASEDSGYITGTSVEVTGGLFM

These targets were tested with Nc1ncnc2c1ncn2[C@@H]1O[C@H](COP(=O)(O)OP(=O)(O)NP(=O)(O)O)[C@@H](O)[C@H]1O [adenylyl imidodiphosphate] (assay: NP40-soluble protein abundance relative to vehicle (solubility fold change) (ratio); higher = more soluble protein in presence of AMP-PNP). Conditions: concentration: 1mM.
Method in brief: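 Each value is a fold change relative to the detergent-processed vehicle, calculated per replicate from vsn-normalised intensities. Jurkat crude lysate received eight concentrations (0.1 to 10 mM) for 10 min at room temperature and 3 min at 37 °C, then was solubilised in 0.8% NP40 with benzonase (60 min, 4 °C). The ultracentrifuged supernatant was TMT-labelled and run by LC-MS/MS in three independent experiments.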
UniProt Q8TCT7 and related entries showed an NP40-soluble protein abundance of 0.984 ± 0.025.
With CORO2A (UniProt Q92828) the NP40-soluble protein abundance was 0.985 ± 0.029.
UniProt Q8NDI1-2|Q8NDI1-3 was tested, and the NP40-soluble protein abundance was 0.979 ± 0.042.
PNPT1 (UniProt Q8TCS8) gave an NP40-soluble protein abundance of 0.988 ± 0.021.
For UniProt Q92734 and related entries, the NP40-soluble protein abundance was 0.991 ± 0.011.
With ABHD11 (UniProt Q8NFV4) the NP40-soluble protein abundance was 1.02 ± 0.035.
UniProt Q92619 was tested, and the NP40-soluble protein abundance was 0.9938 ± 0.0083.
With UniProt Q92784 and related entries the NP40-soluble protein abundance was 1.01 ± 0.022.
Work on SRFBP1 (UniProt Q8NEF9) yielded an NP40-soluble protein abundance of 1.04 ± 0.038.
With PDCD6IP (UniProt Q8WUM4) the NP40-soluble protein abundance was 1.01 ± 0.028.
In the case of UniProt Q8WZA9, the NP40-soluble protein abundance is reported as 1.03 ± 0.023.
UniProt Q92859 and related entries was tested, and the NP40-soluble protein abundance was 1 ± 0.024.
With MOSPD2 (UniProt Q8NHP6) the NP40-soluble protein abundance was 1.01 ± 0.019.
UniProt Q8NDX5 and related entries gave an NP40-soluble protein abundance of 1.027 ± 0.0036.
In the case of RNF169 (UniProt Q8NCN4), the NP40-soluble protein abundance is reported as 1.03 ± 0.018.
Work on PIEZO1 (UniProt Q92508) yielded an NP40-soluble protein abundance of 0.992 ± 0.012.
UniProt Q8TCC3 and related entries showed an NP40-soluble protein abundance of 1.02 ± 0.074.
UniProt Q92538 and related entries gave an NP40-soluble protein abundance of 0.974 ± 0.015.
Work on UniProt Q8TEB1 and related entries yielded an NP40-soluble protein abundance of 1.01 ± 0.03.
In the case of UniProt Q8TF05 and related entries, the NP40-soluble protein abundance is reported as 0.974 ± 0.029.
With ZNRF2 (UniProt Q8NHG8) the NP40-soluble protein abundance was 1.04 ± 0.037.
ENGASE (UniProt Q8NFI3) gave an NP40-soluble protein abundance of 0.989 ± 0.04.
Target CXorf38 (UniProt Q8TB03) has an NP40-soluble protein abundance of 0.9868 ± 0.0075.
NANP (UniProt Q8TBE9) gave an NP40-soluble protein abundance of 1.02 ± 0.016.
Work on GPT2 (UniProt Q8TD30) yielded an NP40-soluble protein abundance of 0.958 ± 0.02.
Work on PPIL4 (UniProt Q8WUA2) yielded an NP40-soluble protein abundance of 1.03 ± 0.0066.
HSD17B8 (UniProt Q92506) was tested, and the NP40-soluble protein abundance was 1.05 ± 0.045.
